According to publication PMC5241887:
No constants are given. Whether binding was seen depends on the method and setting. Some results given as binding are weak or reduced against the parent protein; the word gives no strength.

Protein sequences, listed by entry. Tags and fused reporters are not part of them. Lines headed by an entry give the natural chain unless they say otherwise; changes in a name come on top. Chains listed by the source or under a name are the forms on record and can include a tag or linker.
C-terminal half of zebrafish Sec10 (zSec10), tryptic fragment after Arg394 (B0BLY0, form named): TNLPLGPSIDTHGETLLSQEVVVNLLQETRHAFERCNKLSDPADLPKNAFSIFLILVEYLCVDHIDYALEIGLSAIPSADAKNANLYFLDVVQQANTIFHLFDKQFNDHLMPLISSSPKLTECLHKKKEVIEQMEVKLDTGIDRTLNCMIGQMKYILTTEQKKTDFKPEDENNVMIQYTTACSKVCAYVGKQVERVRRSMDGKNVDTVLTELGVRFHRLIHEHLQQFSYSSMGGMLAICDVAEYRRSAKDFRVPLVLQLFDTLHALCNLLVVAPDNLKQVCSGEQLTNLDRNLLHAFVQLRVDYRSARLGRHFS
N-terminal half of zebrafish Sec10 (zSec10), tryptic fragment ending at Arg394 (B0BLY0, form named): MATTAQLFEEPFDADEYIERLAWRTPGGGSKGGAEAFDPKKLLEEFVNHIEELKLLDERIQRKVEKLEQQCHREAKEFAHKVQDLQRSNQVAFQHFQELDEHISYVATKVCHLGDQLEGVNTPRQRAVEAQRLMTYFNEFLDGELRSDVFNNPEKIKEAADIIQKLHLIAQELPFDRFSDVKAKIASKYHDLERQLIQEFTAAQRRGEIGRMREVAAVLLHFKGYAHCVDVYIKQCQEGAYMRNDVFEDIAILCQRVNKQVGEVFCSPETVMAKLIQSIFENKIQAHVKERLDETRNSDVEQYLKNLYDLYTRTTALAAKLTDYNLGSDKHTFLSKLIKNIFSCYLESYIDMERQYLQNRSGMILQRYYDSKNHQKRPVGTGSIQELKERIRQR

Molecular target: C-terminal half of zebrafish Sec10 (zSec10), tryptic fragment after Arg394 (zebrafish) (UniProt B0BLY0)
Assay: SEC; zSec10 treated with trypsin (1:100 by weight, 12-36 h, 4 °C), then Superdex200 10/300 GL in 10 mM Tris-HCl pH 7.5, 50 mM NaCl, 1 mM DTT; peak fractions by SDS-PAGE; both purified

- binding: binds
Substance: N-terminal half of zebrafish Sec10 (zSec10), tryptic fragment ending at Arg394 (from UniProt B0BLY0 1-394) (domain or fragment)
